Results are given in words; binding and its absence hold for the method and conditions named. Binding can be weak; no strength is given. Where a sequence is shown, tags or fusion partners need not be part of it.

Sequences of proteins named here, by UniProt entry; tags and fusion partners are left off. A change or cut given only in a name is not applied to a line headed by its entry.
UniProt P21860: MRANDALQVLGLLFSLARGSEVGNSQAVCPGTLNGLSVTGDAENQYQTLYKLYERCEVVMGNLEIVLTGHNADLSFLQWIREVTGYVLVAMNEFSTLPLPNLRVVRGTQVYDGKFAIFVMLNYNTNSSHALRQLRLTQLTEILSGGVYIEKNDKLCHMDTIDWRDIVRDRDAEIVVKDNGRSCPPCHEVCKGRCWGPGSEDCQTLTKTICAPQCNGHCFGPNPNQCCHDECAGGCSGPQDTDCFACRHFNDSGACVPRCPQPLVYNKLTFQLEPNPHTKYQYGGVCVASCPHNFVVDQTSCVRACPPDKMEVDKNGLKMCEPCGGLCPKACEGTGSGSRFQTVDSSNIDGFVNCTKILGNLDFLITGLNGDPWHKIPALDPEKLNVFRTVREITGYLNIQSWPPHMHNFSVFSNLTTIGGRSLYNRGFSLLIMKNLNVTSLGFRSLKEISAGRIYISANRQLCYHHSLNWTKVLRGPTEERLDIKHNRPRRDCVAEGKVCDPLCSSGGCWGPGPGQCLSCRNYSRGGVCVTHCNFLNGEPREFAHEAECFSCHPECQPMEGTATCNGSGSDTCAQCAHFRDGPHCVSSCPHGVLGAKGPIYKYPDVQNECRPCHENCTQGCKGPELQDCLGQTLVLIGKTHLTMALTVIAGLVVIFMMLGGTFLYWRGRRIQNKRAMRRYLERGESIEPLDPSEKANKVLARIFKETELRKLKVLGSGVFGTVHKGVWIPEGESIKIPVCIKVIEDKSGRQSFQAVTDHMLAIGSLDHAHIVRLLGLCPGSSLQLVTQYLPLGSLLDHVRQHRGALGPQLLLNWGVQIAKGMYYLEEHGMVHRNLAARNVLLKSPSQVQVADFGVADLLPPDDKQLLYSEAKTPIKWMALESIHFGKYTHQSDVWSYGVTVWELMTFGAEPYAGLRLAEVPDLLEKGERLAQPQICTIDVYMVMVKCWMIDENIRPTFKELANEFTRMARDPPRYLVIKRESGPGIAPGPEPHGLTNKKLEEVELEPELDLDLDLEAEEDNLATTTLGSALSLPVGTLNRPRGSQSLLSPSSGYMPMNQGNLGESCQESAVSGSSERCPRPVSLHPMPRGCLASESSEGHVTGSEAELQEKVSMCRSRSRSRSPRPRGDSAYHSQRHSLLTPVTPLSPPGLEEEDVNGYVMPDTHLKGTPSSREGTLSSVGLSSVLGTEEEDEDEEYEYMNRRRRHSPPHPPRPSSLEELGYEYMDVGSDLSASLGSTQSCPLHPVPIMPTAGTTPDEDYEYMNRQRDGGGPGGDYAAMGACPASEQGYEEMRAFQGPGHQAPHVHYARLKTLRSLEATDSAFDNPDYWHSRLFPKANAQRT

This experiment concerns the target recombinant ErbB3 (UniProt P21860). As to the kind of experiment: pull-down; in vitro binding: 1 µg/ml recombinant ErbB3 with 1 µg/ml recombinant Rabaptin5 in 50 mM Tris pH 7.5, 150 mM NaCl, 1% NP-40, 0.5% sodium deoxycholate, 0.1% SDS, 1 mM EDTA, overnight at 4°C; ErbB3 immunoprecipitated, bound Rabaptin5 detected by blot; both purified.

B1: recombinant MBP-Rabaptin5 (protein, UniProt Q15276 1-862)
chain: MAQPGPASQPDVSLQQRVAELEKINAEFLRAQQQLEQEFNQKRAKFKELYLAKEEDLKRQNAVLQAAQDDLGHLRTQLWEAQAEMENIKAIATVSENTKQEAIDEVKRQWREEVASLQAVMKETVRDYEHQFHLRLEQERTQWAQYRESAEREIADLRRRLSEGQEEENLENEMKKAQEDAEKLRSVVMPMEKEIAALKDKLTEAEDKIKELEASKVKELNHYLEAEKSCRTDLEMYVAVLNTQKSVLQEDAEKLRKELHEVCHLLEQERQQHNQLKHTWQKANDQFLESQRLLMRDMQRMEIVLTSEQLRQVEELKKKDQEDDEQQRLNKRKDHKKADVEEEIKIPVVCALTQEESSAQLSNEEEHLDSTRGSVHSLDAGLLLPSGDPFSKSDNDMFKDGLRRAQSTDSLGTSGSLQSKALGYNYKAKSAGNLDESDFGPLVGADSVSENFDTASLGSLQMPSGFMLTKDQERAIKAMTPEQEETASLLSSVTQGMESAYVSPSGYRLVSETEWNLLQKEVHNAGNKLGRRCDMCSNYEKQLQGIQIQEAETRDQVKKLQLMLRQANDQLEKTMKDKQELEDFIKQSSEDSSHQISALVLRAQASEILLEELQQGLSQAKRDVQEQMAVLMQSREQVSEELVRLQKDNDSLQGKHSLHVSLQQAEDFILPDTTEALRELVLKYREDIINVRTAADHVEEKLKAEILFLKEQIQAEQCLKENLEETLQLEIENCKEEIASISSLKAELERIKVEKGQLESTLREKSQQLESLQEIKISLEEQLKKETAAKATVEQLMFEEKNKAQRLQTELDVSEQVQRDFVKLSQTLQVQLERIRQADSLERIRAILNDTKLTDINQLPET
Take B1: the binding result is “binds”.

Source of the values: PMC12679992.
